Among the data in PMC4096401 are binding values, retold here.

Results are given in words; binding and its absence hold for the method and conditions named. Binding seen in cells or lysates may run through a third protein. Some results given as binding are weak or reduced against the parent protein; the word gives no strength.

The target of this test is T1, endothelial nitric oxide synthase (human (endogenous in HLMVEC)), P29474.
T1 chain: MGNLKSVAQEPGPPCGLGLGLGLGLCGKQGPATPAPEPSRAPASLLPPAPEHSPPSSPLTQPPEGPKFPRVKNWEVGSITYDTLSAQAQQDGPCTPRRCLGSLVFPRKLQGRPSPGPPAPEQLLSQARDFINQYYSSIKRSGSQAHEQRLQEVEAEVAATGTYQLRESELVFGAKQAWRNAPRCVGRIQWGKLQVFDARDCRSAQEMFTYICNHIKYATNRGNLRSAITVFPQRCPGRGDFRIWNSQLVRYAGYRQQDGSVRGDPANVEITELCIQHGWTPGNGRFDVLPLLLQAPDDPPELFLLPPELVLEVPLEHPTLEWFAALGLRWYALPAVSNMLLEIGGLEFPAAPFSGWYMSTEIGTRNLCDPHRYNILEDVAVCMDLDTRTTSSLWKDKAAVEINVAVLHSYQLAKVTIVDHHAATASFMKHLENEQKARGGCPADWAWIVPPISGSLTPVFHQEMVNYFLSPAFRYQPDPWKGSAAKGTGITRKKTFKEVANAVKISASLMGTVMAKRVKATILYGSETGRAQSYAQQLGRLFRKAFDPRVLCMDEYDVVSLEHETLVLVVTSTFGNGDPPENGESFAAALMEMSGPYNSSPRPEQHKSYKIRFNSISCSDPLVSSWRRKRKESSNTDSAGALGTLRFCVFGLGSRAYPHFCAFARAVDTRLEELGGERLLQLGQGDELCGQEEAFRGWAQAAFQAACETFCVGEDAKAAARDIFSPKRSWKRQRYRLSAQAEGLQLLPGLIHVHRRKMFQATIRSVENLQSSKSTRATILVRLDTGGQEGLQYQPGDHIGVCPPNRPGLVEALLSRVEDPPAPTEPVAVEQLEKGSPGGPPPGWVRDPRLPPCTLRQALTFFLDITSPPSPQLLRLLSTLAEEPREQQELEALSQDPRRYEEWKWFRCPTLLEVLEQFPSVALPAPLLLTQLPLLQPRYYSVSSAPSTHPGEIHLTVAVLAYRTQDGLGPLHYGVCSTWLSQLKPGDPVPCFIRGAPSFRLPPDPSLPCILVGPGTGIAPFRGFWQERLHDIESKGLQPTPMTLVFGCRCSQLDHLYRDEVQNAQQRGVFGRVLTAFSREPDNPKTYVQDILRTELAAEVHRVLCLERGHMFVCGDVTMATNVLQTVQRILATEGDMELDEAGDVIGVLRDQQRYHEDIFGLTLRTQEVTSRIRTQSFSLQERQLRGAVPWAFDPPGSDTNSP
The test is described as follows: co-IP; anti-eNOS immunoprecipitation from HLMVEC lysates (20 mM Tris-HCl pH 7.4, 1% Triton X-100, 100 mM NaCl), 2 h at 4 °C, protein A/G agarose; blots for hsp90 and caveolin-1; cells treated with or without LLO (250 ng/ml, 30 min); non-immune IgG as control. Conditions: remark: other sources report otherwise.

B1: caveolin-1, Q03135 1-178 (protein)
chain: MSGGKYVDSEGHLYTVPIREQGNIYKPNNKAMADELSEKQVYDAHTKEIDLVNRDPKHLNDDVVKIDFEDVIAEPEGTHSFDGIWKASFTTFTVTKYWFYRLLSALFGIPMALIWGIYFAILSFLHIWAVVPCIKSFLIEIQCISRVYSIYVHTVCDPLFEAVGKIFSNVRINLQKEI
As to B1, the binding entry is recorded as “binds”.
